Measurements as given in PubChem BioAssay AID602296 (Broad Institute, 2012).
Among all 2,000 compounds or so, about 190 (9.5%) were called active. Another 14% or so got no clear call; they are omitted.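 The calls were made as follows: active = fitted activation curve crossing 40% at a concentration no higher than the sample's top valid tested dose; inconclusive = flat fitted curve at 30% to 70% activation, or poor curve fit; inactive = signal decrease, flat curve within 30%, or the rest.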 This part holds few or none of the hits.

test: HSF-1 reporter activators over prolonged exposure, confirmation, cell-based, mouse, luciferase, cherry-pick, dose (AID 602296); conditions: NIH3T3-HGL HSF-1 response element luciferase, 48 h; at 26 µM (top of the series) unless noted;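 also: test compounds applied by themselves with no MG132 co-treatment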

activation, inactive:
CCCNC(=O)c1c(CSc2ccc(Cl)cc2)noc1C(=O)NCc1ccccc1 -59.7%
O=C(NCCc1nc2ccccc2[nH]1)c1ccc(Cl)c([N+](=O)[O-])c1 -7.69%
Cc1cccc(C)c1NCc1nnc(SCC(=O)Nc2nc(-c3ccccc3)cs2)n1-c1ccccc1 11.9%
CCOC(=O)NC(=O)/C(C#N)=N/Nc1c(F)cccc1F -8.71%
COc1ccc(C(O)(C(=O)NNc2ccc(C)cc2)c2cccs2)cc1 (stereo not drawn) -27.3%
O=C(NNc1c(F)c(F)cc(F)c1F)c1ccc(Cl)nc1 7.76%
CCn1c(SCC(=O)N/N=C/C=C/c2ccco2)nc2ccccc21 9.59%
CCOc1cc(/C=C2/C(=O)ON=C2C)ccc1OCc1ccc(F)cc1 44.8%
CCOC(=O)C1=C(CN2CCc3ccccc32)NC(=O)NC1c1ccc(Cl)cc1 (stereo not drawn) -89.3%
Cc1sc2nc(CSc3cccc(C(F)(F)F)c3)[nH]c(=O)c2c1C -6.05%
O=C(NN1C(=O)C2C(C1=O)C1C=CC2C12CC2)c1ccc(Cl)cc1 (stereo not drawn) -3.81%
COc1ccc(CN2CCNC(=O)C2CC(=O)NCC2CCOCC2)cc1C (stereo not drawn) -12.1%
COc1cccc(/C=N/Nc2ccc([N+](=O)[O-])cn2)c1O -99.1%
Cc1cc2nc(CCN(C(=S)NCC3CCCO3)C3CCCC3)[nH]c2cc1C (stereo not drawn) 0.103%
O=C(O)c1cccc(S(=O)(=O)N2CCC(n3nnc4cc(C(F)(F)F)ccc43)CC2)c1 8.8%
CN1CC=C2C(C#N)=C(N)C(C#N)(C#N)C(c3cccc(Cl)c3Cl)C2C1 (stereo not drawn) 7.89%
CCOc1ccc(N2CC(O)=C(c3nc4ccccc4c(=O)[nH]3)C2=N)cc1 3.58%
Cc1cc(SCC(=O)N/N=C/c2ccc(O)c(O)c2)c(C)cc1Br -70.1%
O=C(Cc1ccccc1)Nc1cc(Cl)ccc1Sc1ccccc1 1.42%
O=C(CN1C(=O)NC(Cc2c[nH]c3ccccc23)C1=O)Nc1cccc(S(=O)(=O)N2CCOCC2)c1 (stereo not drawn) -5.34%
CNC(=S)N(Cc1ccc(Cl)cc1)Cc1cccs1 -9.02%
Cc1ccc(S(=O)(=O)NC2c3cccc4cccc(c34)C2Sc2nncn2C)cc1 (stereo not drawn) -12.1%
O=c1[nH]c(Nc2ccccc2Cl)cc2ccccc12 -1.6%
CCC(C)(C)n1nnnc1C(c1cc2cc(C)cc(C)c2[nH]c1=O)N1CCN(Cc2ccc3c(c2)OCO3)CC1 (stereo not drawn) 2.83%
CCN(C(=O)COC(=O)c1c2c(nc3ccccc13)/C(=C/c1ccccc1)CC(C)C2)C1CCS(=O)(=O)C1 (stereo not drawn) -90.4%
CC(C)Cn1c(N)c(C(=O)COC(=O)c2ccc([N+](=O)[O-])o2)c(=O)n(C)c1=O -24.4%
CCOc1ccc(C(=O)N2CCN(S(=O)(=O)c3cccs3)CC2)c(OCC)c1 -10.2%
O=[N+]([O-])c1cccnc1S(=O)(=O)c1ccccc1 -107%
O=c1c2ccccc2nc(SCc2cn3ccsc3n2)n1-c1ccccc1 -37.9%
CN(C)/C=C/C(=O)c1cccc(Oc2ncccn2)c1 5.17%
CCc1ccc(N(C(=O)c2snc(C(N)=O)c2N)C(C(=O)NCCC(C)C)c2c[nH]c3ccccc23)cc1 (stereo not drawn) -8.71%
O=C(CN1C(=O)NC2(CCCc3ccccc32)C1=O)Nc1cccc(S(=O)(=O)N2CCCCC2)c1 (stereo not drawn) -43.3%
COC(=O)c1sc(N)c(C(=O)OC)c1CSc1nc2sc3c(c2c(=O)n1C)CCC3 -5.02%
O=S(=O)(/N=C(/Nc1cccc2ccccc12)c1ccccc1)c1ccc(F)cc1 -0.076%
N#C/C(=C\c1ccc(Sc2nc3ccccc3[nH]2)o1)c1ccccc1 -79.4%
Cc1sc2nc(C3CC3)nc(SCC(=O)N3CCc4ccccc4C3)c2c1C -14.7%
Cc1cccc(/C=N\NC(=O)c2csnn2)c1 20.4%
Cc1nc(SCC(=O)c2ccccc2)c(C#N)c(-c2ccco2)c1C(=O)NCc1ccco1 132%
O=c1oc2ccccc2c(NC2CCCCC2)c1NS(=O)(=O)c1ccc(Cl)cc1 -45%
COc1ccc(C2CC(c3cccs3)=NN2c2nc(C)c(C(C)=O)s2)cc1OC (stereo not drawn) -16.6%
COc1cc(/C=N/N2CCN(C3c4ccccc4-c4ccccc43)CC2)cc(OC)c1OC -3.27%
O=C(NCCN1Cc2ccccc2C1=O)c1cccs1 -1.13%
COc1ccc(S(=O)(=O)Nc2ccccc2C(F)(F)F)cc1 -25.4%
COc1ccc(S(=O)(=O)Cc2ccc(C(=O)NCCCN(C)c3ccccc3)o2)cc1 -9.77%
CC(CCC(=O)O)C1CC[C@H]2C3CCC4CC(=O)CCC4(C)[C@H]3CC(=O)C12C (stereo partly drawn) 18%
O=C(CC1C(=O)N(Cc2ccccc2)C(=S)N1CCN1CCOCC1)Nc1ccc(F)cc1 (stereo not drawn) 2.9%
Cc1cc(C)n(S(=O)(=O)/C=C/c2ccccc2)n1 -5.8%
Cc1cccc(NC(=O)CC(C)S(=O)(=O)c2ccc3c(c2)NC(=O)CO3)c1C (stereo not drawn) -13.3%
CCC(C)NC(=O)CC(NS(=O)(=O)c1ccc(Cl)cc1)c1ccco1 (stereo not drawn) -11.5%
CCN(CC)c1ccc(/C=C2/C(=O)N(c3ccc([N+](=O)[O-])cc3)N=C2N2CCOCC2)cc1 -6.1%
CC(=O)N1c2ccc(C)cc2C(c2ccccc2)CC1C (stereo not drawn) -22.4%
CCOc1ccc(NC(=O)Cn2nnc(C(=O)NCc3ccco3)c2N)cc1 -12.2%
C=C(C(=O)c1ccccc1)C(CC(=O)c1ccccc1)c1ccccc1 (stereo not drawn) -101%
O=C(Cn1ncc(Cl)c(Cl)c1=O)N1CCN(S(=O)(=O)c2ccc3ccccc3c2)CC1 -103%
COC(=O)c1ccccc1NC(=O)CSc1nc(Nc2ccccc2)nc(N2CCOCC2)n1 -43.1%
Cc1ccc(CCNC(=O)C2CCN(S(=O)(=O)c3ccc4c(c3)NC(=O)CO4)CC2)cc1 -4.08%
Cn1c(SCc2ccccc2C#N)nc2ccccc2c1=O -13.4%
Cc1cc(C)c(S(=O)(=O)n2ccc(-c3ccc(OCCN(C)c4ccccn4)cc3)n2)c(C)c1 -10.9%
CCn1nc(C)cc1-c1nnc(Sc2ncc([N+](=O)[O-])s2)n1C -111%
Fc1ccccc1NC(=S)N1CCN(c2ccccn2)CC1 9.96%
CCN(CC(=O)NC(C)C)Cc1nc2sc3c(c2c(=O)[nH]1)CCC3 -23.6%
Cc1cc(C)n(-c2cc(=O)n(C)c(=O)n2C)n1 12%
CCCCCCNC(=O)CNC(=S)N(Cc1cccs1)C1CCCCC1 -77.1%
O=S(=O)(c1ccccc1)c1ncc(C(F)(F)F)cc1Cl -104%
COc1ccc(OC)c(S(=O)(=O)Nc2ccccc2O)c1 -3.47%
C/C=C(/C)C(=O)Nc1cccc(C2=NOC3(C2)C[C@@H](C(N)=O)N(C(=O)CC)C3)c1 (stereo partly drawn) -7%
OCC1(Cc2cccc(C(F)(F)F)c2)CCN(Cc2cc3ccccc3o2)CC1 -20.1%
O=C(Nc1nccs1)c1cccc(N2C(=O)c3cccc4c([N+](=O)[O-])ccc(c34)C2=O)c1 -101%
Cc1cc(F)c(F)c(C(=O)N2CCOCC2)c1Cl 7.96%
Cc1ccc(S(=O)(=O)n2c(=O)oc3ccccc32)cc1 -7.52%
Cc1c(C(=O)N(Cc2ccncc2)CC2CCCO2)oc2c(F)cccc12 (stereo not drawn) 0.128%
COc1ccc(CN(C)Cc2c(O)ccc3ccccc23)cc1 -3.48%
COc1cccc(OC)c1OCCNCC1COc2ccccc2O1 (stereo not drawn) -4.24%
O=C(CSC1CS(=O)(=O)c2cc([N+](=O)[O-])ccc21)NNC(=O)c1ccc(Cl)cc1 (stereo not drawn) 7.22%
CSCC[C@H](NC(=O)N1CCn2c1nc1ccccc12)C(=O)NCc1ccc(F)cc1 -9.38%
Cc1ccc(-c2[nH]ncc2C(=O)c2ccc(Br)cc2)c(O)c1 7.31%
O=C(CCc1nnc(CCCCc2ccccc2)o1)NCCN1CCCCC1=O 3.82%
CCCN1CCN(C(=O)c2ccc(Sc3ccc(C)cc3)c(NC(C)=O)c2)CC1 -11.2%
CCOC(=O)c1c(C)sc2c1N(C(=O)CN(CC)CC)c1ccccc1S2 -8.47%
COc1ccc(CCN2C(=O)C3C(C2=O)C2C=CC3C23CC3)cc1OC (stereo not drawn) -3.1%
O=[N+]([O-])c1cc([N+](=O)[O-])c(N2CCOCC2)cc1NCc1ccccc1 6%
O=S(=O)(c1ccc(Cl)cc1)N1CCC2(CC1)OCCN2S(=O)(=O)c1cccs1 -35.6%
CCOc1ccc(S(=O)(=O)c2c(C(=O)c3ccccc3)cnc3cc4c(cc23)OCCO4)cc1 7.45%
CCc1ccccc1NS(=O)(=O)c1cc2c3c(c1)CCN3C(=O)CC2 2.03%
COc1ccc(N2C(=O)CSC2c2ccncc2)cc1 (stereo not drawn) 6.7%
O=C(CCc1ccc(S(=O)(=O)N2CCOCC2)cc1)N1CCN(Cc2ccc3c(c2)OCO3)CC1 7.24%
CC12CCC(=O)N1C(C(=O)Nc1cccc3ccccc13)CS2 (stereo not drawn) -1.65%
CC[C@H](C)/C=C(C)/C=C/C(=O)Cc1cc(O)c(C)c(O)c1C=O -0.093%

Some of these compounds in order of length of the SMILES, smallest number first:
activation, inactive:
Cc1cc(F)c(F)c(C(=O)N2CCOCC2)c1Cl 7.96%
Cc1c(C(=O)N(Cc2ccncc2)CC2CCCO2)oc2c(F)cccc12 (stereo not drawn) 0.128%
CCOC(=O)c1c(C)sc2c1N(C(=O)CN(CC)CC)c1ccccc1S2 -8.47%
Cc1nc(SCC(=O)c2ccccc2)c(C#N)c(-c2ccco2)c1C(=O)NCc1ccco1 132%
Cc1cc(C)c(S(=O)(=O)n2ccc(-c3ccc(OCCN(C)c4ccccn4)cc3)n2)c(C)c1 -10.9%
